Measured values from article doi:10.1101/2024.08.31.610644.
Read-outs that look alike come from different tables or passages of the source. Results are given in words; binding and its absence hold for the method and conditions named. Some binding calls cover weakened binding; strength is not graded here. For some assays here: Sequences can lack the tags named with a protein.

By UniProt entry, the sequences of proteins in these tests, tags left out.
UniProt Q9SP32: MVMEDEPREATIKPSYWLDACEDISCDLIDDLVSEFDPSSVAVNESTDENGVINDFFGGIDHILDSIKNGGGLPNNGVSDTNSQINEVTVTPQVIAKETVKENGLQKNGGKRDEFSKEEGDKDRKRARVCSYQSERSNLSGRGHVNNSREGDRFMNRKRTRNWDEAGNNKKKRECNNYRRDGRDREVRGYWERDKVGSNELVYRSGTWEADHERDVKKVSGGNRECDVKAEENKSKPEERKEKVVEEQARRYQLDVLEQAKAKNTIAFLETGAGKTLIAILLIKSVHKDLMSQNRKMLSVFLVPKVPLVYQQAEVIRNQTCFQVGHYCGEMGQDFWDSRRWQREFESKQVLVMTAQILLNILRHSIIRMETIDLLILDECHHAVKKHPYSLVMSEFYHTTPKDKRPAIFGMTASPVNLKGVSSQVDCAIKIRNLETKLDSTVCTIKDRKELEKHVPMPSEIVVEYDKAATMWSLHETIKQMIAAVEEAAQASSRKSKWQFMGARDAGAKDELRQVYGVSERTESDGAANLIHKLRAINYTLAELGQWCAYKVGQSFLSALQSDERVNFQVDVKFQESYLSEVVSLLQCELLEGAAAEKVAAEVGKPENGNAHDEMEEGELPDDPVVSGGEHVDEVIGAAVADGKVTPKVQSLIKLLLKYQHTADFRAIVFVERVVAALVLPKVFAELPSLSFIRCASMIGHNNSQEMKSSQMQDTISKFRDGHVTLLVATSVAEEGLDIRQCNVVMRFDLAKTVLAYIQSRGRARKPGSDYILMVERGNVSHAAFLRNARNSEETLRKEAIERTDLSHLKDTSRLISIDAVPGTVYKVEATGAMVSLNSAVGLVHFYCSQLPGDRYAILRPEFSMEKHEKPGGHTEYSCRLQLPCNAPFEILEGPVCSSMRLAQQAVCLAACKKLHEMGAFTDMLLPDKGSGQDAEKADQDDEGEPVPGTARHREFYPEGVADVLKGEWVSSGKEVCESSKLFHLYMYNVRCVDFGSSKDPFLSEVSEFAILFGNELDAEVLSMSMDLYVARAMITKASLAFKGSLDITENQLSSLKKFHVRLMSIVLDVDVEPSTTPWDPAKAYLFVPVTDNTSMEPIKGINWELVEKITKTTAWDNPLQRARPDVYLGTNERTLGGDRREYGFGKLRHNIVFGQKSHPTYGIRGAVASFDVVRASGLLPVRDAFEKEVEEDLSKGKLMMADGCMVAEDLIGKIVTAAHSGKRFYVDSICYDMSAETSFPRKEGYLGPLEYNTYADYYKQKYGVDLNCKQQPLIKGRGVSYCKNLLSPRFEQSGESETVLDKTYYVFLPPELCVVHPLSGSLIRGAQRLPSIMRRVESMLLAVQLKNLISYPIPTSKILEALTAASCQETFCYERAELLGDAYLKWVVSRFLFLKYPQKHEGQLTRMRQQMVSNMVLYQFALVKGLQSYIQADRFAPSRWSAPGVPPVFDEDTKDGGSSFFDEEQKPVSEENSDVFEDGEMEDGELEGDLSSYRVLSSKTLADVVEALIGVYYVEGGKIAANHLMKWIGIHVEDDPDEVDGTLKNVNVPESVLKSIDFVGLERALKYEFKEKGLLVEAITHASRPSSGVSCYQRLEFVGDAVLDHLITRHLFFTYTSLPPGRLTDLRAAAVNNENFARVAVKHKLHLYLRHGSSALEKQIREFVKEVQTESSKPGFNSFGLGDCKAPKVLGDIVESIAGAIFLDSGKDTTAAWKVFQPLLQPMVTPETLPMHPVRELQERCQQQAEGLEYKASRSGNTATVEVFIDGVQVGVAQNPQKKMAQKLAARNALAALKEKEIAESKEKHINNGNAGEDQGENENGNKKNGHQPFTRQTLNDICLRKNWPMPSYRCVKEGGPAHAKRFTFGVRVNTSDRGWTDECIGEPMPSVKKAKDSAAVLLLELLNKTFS
UniProt O82486: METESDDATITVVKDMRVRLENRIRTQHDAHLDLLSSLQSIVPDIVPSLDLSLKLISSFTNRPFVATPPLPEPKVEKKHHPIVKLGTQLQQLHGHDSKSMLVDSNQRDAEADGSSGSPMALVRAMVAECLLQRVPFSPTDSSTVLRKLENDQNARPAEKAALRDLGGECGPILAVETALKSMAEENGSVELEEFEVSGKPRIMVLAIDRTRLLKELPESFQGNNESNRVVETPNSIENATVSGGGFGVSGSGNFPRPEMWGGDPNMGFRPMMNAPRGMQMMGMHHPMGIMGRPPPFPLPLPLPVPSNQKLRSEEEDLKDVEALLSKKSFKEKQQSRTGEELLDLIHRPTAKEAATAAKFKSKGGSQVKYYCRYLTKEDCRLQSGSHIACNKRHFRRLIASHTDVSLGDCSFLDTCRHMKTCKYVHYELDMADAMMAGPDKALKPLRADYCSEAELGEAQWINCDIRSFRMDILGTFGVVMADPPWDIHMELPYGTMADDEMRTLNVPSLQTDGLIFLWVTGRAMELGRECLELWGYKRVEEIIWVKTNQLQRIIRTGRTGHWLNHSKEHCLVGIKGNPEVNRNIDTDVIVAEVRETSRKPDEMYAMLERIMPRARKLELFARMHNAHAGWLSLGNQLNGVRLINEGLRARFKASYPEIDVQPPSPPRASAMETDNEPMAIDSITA

T1: SERRATE (SE), yeast two-hybrid fusion (Arabidopsis thaliana) (UniProt Q9ZVD0)
T1 sequence: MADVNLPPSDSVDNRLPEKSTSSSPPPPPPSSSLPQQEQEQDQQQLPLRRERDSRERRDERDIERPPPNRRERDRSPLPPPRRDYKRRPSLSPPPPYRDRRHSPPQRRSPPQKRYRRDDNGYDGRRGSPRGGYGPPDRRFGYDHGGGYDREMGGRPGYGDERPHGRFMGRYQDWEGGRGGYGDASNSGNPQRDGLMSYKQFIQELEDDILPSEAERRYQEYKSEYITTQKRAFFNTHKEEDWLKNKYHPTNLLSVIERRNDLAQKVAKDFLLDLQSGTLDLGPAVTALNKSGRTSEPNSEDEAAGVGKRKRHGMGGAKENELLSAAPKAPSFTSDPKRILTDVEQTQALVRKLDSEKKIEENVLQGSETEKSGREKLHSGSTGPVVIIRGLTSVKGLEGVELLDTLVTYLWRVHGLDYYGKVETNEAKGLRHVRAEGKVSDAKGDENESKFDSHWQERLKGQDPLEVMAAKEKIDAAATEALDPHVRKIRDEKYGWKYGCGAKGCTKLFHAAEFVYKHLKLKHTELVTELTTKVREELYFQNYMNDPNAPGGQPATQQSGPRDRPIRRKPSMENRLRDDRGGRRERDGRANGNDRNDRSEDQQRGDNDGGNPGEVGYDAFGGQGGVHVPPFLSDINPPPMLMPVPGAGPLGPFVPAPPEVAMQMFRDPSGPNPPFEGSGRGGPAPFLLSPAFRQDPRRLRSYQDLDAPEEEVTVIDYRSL


Key:
Test in all cases: two-hybrid
[1] = target: T1, SERRATE (SE), yeast two-hybrid fusion (Arabidopsis thaliana)
[2] = target: SE-R718A, yeast two-hybrid fusion (Arabidopsis thaliana) (UniProt Q9ZVD0)
[3] = target: T1, SERRATE (SE), yeast two-hybrid fusion (Arabidopsis thaliana); remark: listed apart in the source

| Molecule | binding [1] | binding [2] | binding [3] |
| --- | --- | --- | --- |
| DCL1, yeast two-hybrid fusion (from UniProt Q9SP32 1-1909) | binds | binds |  |
| mRNA adenosine methylase A (MTA), yeast two-hybrid fusion (from UniProt O82486 1-685) | no binding |  |  |
| FK506-BINDING PROTEIN 12 KD … PROTEIN 37KD (FIP37), yeast two-hybrid fusion (protein, UniProt Q9ZSZ8 1-330) MEFSSQDDDFGGDDSAANATRASGNRRSFGDLEDDEDDIFGSTTVAPGVRTGMILSLRGSLKNCKDDLASCQNELESAKTEIQKWKSAFQNESFVPAGKSPEPRFLIDYIQNLKSSEKSLKEQLEIAKRKEASCIVQYAKREQEMAELKSAVRDLKSQLKPASMQARRLLLDPAIHEEFSRLKNLVEEKDKKIKELQDNIAAVTFTPQSKNGKMLMAKCRTLQEENEEIGHQAAEGKIHELAIKLAMQKSQNAELRSQFEGLYKHMEELTNDVERSNETVIILQEKLEEKEKEIERVKKGLEIVSELVGDKKDEVDEIDEDAKEEIAGGE |  |  | binds |
| evolutionarily conserved C-terminal region 2 (ECT2), yeast two-hybrid fusion (protein, UniProt Q9LJE5 1-667) MATVAPPADQATDLLQKLSLDSPAKASEIPEPNKKTAVYQYGGVDVHGQVPSYDRSLTPMLPSDAADPSVCYVPNPYNPYQYYNVYGSGQEWTDYPAYTNPEGVDMNSGIYGENGTVVYPQGYGYAAYPYSPATSPAPQLGGEGQLYGAQQYQYPNYFPNSGPYASSVATPTQPDLSANKPAGVKTLPADSNNVASAAGITKGSNGSAPVKPTNQATLNTSSNLYGMGAPGGGLAAGYQDPRYAYEGYYAPVPWHDGSKYSDVQRPVSGSGVASSYSKSSTVPSSRNQNYRSNSHYTSVHQPSSVTGYGTAQGYYNRMYQNKLYGQYGSTGRSALGYGSSGYDSRTNGRGWAATDNKYRSWGRGNSYYYGNENNVDGLNELNRGPRAKGTKNQKGNLDDSLEVKEQTGESNVTEVGEADNTCVVPDREQYNKEDFPVDYANAMFFIIKSYSEDDVHKSIKYNVWASTPNGNKKLAAAYQEAQQKAGGCPIFLFFSVNASGQFVGLAEMTGPVDFNTNVEYWQQDKWTGSFPLKWHIVKDVPNSLLKHITLENNENKPVTNSRDTQEVKLEQGLKIVKIFKEHSSKTCILDDFSFYEVRQKTILEKKAKQTQKQVSEEKVTDEKKESATAESASKESPAAVQTSSDVKVAENGSVAKPVTGDVVANGC |  |  | binds |
